From the supplement of paper PMC10849652
This is one part of the list.

Chains of the proteins cited; added tags and fusions are not shown. Lines headed by an entry give the natural chain unless they say otherwise; changes in a name come on top.
UniProt P13929, whole entry, looked up: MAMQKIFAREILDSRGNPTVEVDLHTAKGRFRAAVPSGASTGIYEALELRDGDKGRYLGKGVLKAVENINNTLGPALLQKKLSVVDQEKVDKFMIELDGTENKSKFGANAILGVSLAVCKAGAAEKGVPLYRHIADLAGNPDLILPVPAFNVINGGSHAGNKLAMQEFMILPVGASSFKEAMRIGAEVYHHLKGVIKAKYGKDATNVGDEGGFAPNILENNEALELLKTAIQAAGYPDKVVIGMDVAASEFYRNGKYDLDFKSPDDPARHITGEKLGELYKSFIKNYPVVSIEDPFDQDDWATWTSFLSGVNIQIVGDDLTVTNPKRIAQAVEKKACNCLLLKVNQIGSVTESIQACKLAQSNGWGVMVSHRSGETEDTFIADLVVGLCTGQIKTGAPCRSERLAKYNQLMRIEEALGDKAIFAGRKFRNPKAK
UniProt Q8TE68: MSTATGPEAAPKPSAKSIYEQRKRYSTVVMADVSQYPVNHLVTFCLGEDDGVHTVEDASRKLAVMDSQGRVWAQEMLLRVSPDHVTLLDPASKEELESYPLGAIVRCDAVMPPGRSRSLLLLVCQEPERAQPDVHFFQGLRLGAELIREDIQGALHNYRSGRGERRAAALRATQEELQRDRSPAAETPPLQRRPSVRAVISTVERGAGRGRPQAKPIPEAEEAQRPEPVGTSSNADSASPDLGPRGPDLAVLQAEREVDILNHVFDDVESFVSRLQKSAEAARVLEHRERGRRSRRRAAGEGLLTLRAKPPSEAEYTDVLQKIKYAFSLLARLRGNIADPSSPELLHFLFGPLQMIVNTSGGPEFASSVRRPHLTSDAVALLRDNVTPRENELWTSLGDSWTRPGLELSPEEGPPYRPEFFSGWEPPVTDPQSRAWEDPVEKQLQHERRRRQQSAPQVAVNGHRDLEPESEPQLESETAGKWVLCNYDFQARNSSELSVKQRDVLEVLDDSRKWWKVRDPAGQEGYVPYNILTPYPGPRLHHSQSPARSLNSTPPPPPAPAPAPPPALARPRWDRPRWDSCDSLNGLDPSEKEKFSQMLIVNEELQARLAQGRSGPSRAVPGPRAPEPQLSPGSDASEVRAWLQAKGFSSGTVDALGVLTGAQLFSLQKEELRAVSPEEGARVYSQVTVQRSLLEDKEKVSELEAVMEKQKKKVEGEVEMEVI
UniProt Q8N766: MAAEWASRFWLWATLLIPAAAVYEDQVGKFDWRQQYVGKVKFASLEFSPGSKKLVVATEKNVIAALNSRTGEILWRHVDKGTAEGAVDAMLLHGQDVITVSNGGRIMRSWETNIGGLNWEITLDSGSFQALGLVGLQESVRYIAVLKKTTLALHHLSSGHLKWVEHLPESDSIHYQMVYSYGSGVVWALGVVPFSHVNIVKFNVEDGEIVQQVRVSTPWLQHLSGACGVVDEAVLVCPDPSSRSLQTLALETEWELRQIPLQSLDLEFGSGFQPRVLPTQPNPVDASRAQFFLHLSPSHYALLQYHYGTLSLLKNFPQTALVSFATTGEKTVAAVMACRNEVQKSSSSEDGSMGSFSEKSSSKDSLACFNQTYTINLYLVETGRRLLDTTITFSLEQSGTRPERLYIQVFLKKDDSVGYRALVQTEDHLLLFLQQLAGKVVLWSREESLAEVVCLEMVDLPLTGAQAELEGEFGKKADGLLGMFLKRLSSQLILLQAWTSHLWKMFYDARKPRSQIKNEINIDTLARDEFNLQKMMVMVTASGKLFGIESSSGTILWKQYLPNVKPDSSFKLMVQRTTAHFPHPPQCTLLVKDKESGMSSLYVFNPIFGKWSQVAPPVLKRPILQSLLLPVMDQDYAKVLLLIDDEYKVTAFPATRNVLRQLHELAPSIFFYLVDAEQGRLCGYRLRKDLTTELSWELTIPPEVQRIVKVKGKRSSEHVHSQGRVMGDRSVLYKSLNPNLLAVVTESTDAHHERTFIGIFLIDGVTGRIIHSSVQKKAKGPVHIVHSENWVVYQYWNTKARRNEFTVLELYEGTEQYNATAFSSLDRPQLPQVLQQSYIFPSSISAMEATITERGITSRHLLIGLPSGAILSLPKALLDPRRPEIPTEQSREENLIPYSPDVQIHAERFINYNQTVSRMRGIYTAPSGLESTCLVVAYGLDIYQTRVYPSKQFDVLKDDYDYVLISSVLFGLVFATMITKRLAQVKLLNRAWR
UniProt Q9NPA0: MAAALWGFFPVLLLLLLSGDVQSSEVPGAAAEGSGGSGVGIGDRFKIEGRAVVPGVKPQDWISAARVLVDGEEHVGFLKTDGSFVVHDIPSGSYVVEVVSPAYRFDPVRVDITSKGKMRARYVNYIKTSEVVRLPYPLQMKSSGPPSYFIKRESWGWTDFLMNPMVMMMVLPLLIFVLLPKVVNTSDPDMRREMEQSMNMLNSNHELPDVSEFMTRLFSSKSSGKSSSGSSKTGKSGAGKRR
UniProt Q14232, whole entry, looked up: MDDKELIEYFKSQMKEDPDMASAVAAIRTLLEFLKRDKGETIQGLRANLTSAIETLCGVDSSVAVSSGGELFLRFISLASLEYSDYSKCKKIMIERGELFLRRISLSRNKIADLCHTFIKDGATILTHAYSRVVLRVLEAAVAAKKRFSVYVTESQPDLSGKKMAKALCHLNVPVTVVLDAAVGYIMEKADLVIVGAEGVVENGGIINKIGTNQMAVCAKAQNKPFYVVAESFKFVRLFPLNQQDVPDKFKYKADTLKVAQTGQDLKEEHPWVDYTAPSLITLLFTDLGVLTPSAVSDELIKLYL
UniProt Q9BW60: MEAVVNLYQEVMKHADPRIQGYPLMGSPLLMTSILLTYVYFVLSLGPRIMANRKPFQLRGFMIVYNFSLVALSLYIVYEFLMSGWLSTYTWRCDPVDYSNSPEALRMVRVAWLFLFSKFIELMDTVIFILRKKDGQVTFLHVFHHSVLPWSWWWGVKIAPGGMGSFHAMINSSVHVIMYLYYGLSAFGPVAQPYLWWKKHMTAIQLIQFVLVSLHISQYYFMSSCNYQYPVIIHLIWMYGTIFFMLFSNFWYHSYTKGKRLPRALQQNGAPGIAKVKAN
UniProt P19419: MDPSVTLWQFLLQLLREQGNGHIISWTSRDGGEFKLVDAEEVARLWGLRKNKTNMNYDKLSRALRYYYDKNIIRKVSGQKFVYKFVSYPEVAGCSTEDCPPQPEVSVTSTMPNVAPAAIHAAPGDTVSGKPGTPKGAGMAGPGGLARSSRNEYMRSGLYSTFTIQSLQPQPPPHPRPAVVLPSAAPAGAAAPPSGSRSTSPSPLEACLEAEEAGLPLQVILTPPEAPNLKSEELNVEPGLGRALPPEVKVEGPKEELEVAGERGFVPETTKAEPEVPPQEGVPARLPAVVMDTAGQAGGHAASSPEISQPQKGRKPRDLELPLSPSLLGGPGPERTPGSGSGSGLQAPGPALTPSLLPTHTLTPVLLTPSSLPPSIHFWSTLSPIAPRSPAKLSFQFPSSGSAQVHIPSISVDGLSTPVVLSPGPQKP
UniProt Q9H777: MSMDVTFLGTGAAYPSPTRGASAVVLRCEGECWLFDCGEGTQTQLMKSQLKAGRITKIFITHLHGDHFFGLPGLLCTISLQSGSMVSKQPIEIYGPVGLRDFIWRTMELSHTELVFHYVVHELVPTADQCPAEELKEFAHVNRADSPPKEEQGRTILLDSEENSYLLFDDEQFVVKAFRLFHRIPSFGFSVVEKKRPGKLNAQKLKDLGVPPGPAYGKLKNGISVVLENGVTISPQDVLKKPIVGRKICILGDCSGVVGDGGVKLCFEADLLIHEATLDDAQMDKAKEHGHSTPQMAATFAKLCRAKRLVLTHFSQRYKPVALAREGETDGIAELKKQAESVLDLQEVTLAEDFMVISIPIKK
UniProt P26378: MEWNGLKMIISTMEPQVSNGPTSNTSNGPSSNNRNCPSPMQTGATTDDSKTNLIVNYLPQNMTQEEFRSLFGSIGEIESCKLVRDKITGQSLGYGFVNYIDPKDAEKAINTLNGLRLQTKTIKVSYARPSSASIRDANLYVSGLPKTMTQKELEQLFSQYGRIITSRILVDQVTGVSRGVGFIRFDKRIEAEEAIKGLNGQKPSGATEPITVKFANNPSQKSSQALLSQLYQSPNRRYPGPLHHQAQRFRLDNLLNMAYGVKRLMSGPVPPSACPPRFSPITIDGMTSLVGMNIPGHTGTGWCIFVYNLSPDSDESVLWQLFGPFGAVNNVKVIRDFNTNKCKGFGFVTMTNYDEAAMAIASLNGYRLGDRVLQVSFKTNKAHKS
UniProt Q9H5J4: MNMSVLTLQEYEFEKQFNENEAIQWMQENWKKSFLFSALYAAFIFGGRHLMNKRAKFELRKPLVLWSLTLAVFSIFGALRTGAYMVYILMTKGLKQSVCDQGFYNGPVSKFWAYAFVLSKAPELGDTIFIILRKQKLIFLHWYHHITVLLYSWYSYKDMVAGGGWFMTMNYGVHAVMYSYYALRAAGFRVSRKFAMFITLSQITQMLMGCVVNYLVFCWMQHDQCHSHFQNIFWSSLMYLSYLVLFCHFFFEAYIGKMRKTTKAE
UniProt Q96JJ3: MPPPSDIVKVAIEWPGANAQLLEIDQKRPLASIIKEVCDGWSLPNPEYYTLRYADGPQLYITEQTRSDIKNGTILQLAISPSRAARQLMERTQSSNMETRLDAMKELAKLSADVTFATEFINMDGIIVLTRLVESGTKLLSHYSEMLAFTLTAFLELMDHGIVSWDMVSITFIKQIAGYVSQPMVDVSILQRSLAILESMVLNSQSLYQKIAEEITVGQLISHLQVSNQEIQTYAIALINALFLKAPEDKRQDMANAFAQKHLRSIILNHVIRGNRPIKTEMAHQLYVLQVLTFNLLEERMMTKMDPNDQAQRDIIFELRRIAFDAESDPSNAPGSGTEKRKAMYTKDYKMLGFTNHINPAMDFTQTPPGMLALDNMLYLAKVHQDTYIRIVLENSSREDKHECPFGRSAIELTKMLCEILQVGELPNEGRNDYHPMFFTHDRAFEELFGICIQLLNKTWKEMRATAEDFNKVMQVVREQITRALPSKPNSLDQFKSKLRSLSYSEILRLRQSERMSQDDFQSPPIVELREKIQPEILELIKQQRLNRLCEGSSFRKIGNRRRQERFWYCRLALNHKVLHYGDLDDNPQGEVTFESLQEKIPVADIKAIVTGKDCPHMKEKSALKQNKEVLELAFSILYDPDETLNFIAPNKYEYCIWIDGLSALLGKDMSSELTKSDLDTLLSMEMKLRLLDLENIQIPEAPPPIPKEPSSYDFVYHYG
UniProt Q14152, whole entry, looked up: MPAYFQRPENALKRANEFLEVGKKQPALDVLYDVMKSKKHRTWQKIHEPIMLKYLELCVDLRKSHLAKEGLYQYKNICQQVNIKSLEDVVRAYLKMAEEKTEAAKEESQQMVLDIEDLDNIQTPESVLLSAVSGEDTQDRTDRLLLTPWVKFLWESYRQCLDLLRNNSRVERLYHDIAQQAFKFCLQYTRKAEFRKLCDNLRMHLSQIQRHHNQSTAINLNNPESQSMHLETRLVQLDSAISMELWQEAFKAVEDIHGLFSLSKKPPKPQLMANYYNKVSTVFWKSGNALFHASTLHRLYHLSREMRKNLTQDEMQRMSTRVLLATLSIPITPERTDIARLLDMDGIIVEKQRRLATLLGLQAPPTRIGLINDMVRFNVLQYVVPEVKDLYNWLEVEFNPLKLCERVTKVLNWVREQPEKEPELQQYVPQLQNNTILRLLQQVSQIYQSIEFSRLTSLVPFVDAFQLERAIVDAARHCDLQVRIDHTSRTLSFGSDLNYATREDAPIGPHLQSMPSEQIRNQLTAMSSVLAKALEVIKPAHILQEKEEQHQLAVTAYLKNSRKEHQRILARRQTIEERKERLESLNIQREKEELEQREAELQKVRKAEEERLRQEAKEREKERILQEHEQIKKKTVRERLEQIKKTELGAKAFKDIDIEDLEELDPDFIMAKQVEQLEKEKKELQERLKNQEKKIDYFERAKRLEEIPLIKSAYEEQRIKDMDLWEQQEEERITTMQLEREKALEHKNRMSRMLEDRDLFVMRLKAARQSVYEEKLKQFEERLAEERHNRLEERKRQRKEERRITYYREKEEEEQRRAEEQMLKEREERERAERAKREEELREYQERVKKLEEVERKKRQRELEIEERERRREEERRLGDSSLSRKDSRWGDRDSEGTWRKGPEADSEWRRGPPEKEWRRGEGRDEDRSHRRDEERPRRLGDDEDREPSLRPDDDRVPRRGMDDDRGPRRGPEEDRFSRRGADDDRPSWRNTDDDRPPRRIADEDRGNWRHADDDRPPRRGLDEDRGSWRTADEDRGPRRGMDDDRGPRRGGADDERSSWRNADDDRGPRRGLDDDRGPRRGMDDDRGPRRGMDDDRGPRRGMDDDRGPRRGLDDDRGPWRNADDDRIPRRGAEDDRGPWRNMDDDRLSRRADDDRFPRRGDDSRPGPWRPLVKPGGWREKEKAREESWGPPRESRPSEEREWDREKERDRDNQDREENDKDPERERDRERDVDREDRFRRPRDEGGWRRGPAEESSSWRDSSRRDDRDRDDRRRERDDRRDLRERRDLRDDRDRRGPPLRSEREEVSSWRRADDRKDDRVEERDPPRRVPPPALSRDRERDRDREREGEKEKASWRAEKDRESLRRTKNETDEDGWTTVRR

Legend:
Assay in all cases: log2 fold change, soluble protein after heating vs DMSO (PISA); higher = thermal stabilisation; K562 lysate, 10 uM; active = over 0.2 and 3.5 SD of the protein, either way, in both replicates (recomputed)
vemurafenib = compound: CCCS(=O)(=O)Nc1ccc(F)c(C(=O)c2c[nH]c3ncc(-c4ccc(Cl)cc4)cc23)c1F [vemurafenib]
Method in brief: (§1)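 K562 pellets were dounce-homogenised in PBS pH 7.4 containing 1 mM MgCl2, and the crude extract, at 1 mg/mL protein, was exposed to 10 μM compound for 30 min. Aliquots were heated for 3 min across 48°C-58°C, pooled, brought to 0.5% NP-40 at 4°C and spun at 21,000xg for 90 min, with the supernatant taken as soluble protein. TMTpro 16plex LC-MS/MS with equalised channel sums quantified that protein. Values are log-two fold changes in thermal stability relative to solvent controls, taken from duplicates.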

[1] = compound: CCCS(=O)(=O)Nc1ccc(F)c(C(=O)c2c[nH]c3ncc(Cl)cc23)c1F
Method in brief: as §1

barasertib = compound: CCN(CCCOc1ccc2c(Nc3cc(CC(=O)Nc4cccc(F)c4)[nH]n3)ncnc2c1)CCOP(=O)(O)O [barasertib]
Method in brief: as §1

[2] = compound: CC[C@@H]1C(=O)N(C)c2cnc(Nc3ccc(C(=O)NC4CCN(C)CC4)cc3OC)nc2N1C1CCCC1
Method in brief: as §1

volasertib = compound: CC[C@@H]1C(=O)N(C)c2cnc(Nc3ccc(C(=O)N[C@H]4CC[C@H](N5CCN(CC6CC6)CC5)CC4)cc3OC)nc2N1C(C)C [volasertib]
Method in brief: as §1

[3] = compound: CCn1c(C(=O)N(C2CC2)C2CC2)cc2c3c(ncn3C)c(Nc3cc(C)n(C)n3)nc21
Method in brief: as §1

[4] = compound: CCn1cc(-c2ccnc3[nH]c(-c4cccc(CN(C)C)c4)cc23)c(-c2ccc(NC(=O)N(C)C)cc2)n1
Method in brief: as §1

[5] = compound: CN1CCC(CNc2ccc3ncc(-c4cccc(OC(F)(F)F)c4)n3n2)CC1
Method in brief: as §1

saracatinib = compound: CN1CCN(CCOc2cc(OC3CCOCC3)c3c(Nc4c(Cl)ccc5c4OCO5)ncnc3c2)CC1 [saracatinib]
Method in brief: as §1

sotrastaurin = compound: CN1CCN(c2nc(C3=C(c4c[nH]c5ccccc45)C(=O)NC3=O)c3ccccc3n2)CC1 [sotrastaurin]
Method in brief: as §1

alvocidib = compound: CN1CC[C@H](c2c(O)cc(O)c3c(=O)cc(-c4ccccc4Cl)oc23)[C@H](O)C1 [alvocidib]
Method in brief: as §1

Tubastatin A = compound: CN1CCc2c(c3ccccc3n2Cc2ccc(C(=O)NO)cc2)C1 [Tubastatin A]
Method in brief: as §1

[6] = compound: CNC(=O)C1=CC=CC=C1NC2=NC(=NC=C2Cl)NC3=C(C=C(C=C3)N4CCOCC4)OC
Method in brief: as §1

defactinib = compound: CNC(=O)c1ccc(Nc2ncc(C(F)(F)F)c(NCc3nccnc3N(C)S(C)(=O)=O)n2)cc1 [defactinib]
Method in brief: as §1

[7] = compound: CNc1nc(-c2ccc3c(N)n[nH]c3c2)cc(N2C[C@@H](C(=O)NC3CCCCC3)CC[C@H]2C)n1
Method in brief: as §1

encorafenib = compound: COC(=O)N[C@@H](C)CNc1nccc(-c2cn(C(C)C)nc2-c2cc(Cl)cc(NS(C)(=O)=O)c2F)n1 [encorafenib]
Method in brief: as §1

[8] = compound: COC(=O)[C@H](CCSC)NC(=O)C1=C(C=C(C=C1)NC[C@H](CS)N)C2=CC=CC=C2
Method in brief: as §1

alisertib = compound: COc1cc(Nc2ncc3c(n2)-c2ccc(Cl)cc2C(c2c(F)cccc2OC)=NC3)ccc1C(=O)O [alisertib]
Method in brief: as §1

[9] = compound: COc1cc2nc(-c3cc(F)ccc3O)nc(N[C@@H]3CNC[C@H]3C(C)(C)O)c2cc1OC
Method in brief: as §1

gefitinib = compound: COc1cc2ncnc(Nc3ccc(F)c(Cl)c3)c2cc1OCCCN1CCOCC1 [gefitinib]
Method in brief: as §1

Measured: log2 fold change

ENO3 (UniProt P13929)
inactive: vemurafenib -0.01 | [1] 0.033 | barasertib 0.008 | [2] -0.073 | volasertib -0.011 | [3] 0.082 | [4] -0.289 | [5] 0.249 | saracatinib -0.228 | sotrastaurin -0.006 | alvocidib -0.101 | Tubastatin A 0.038 | [6] 0.038 | defactinib 0.024 | [7] 0.192 | encorafenib -0.073 | [8] 0.025 | alisertib -0.017 | [9] -0.001 | gefitinib -0.006

ENTPD7 (UniProt Q9NQZ7)
inactive: vemurafenib 0.02 | [1] -0.097 | [2] 0.084 | volasertib -0.263 | [4] 0.097 | [5] 0.087 | alvocidib 0.078 | defactinib 0.027 | encorafenib 0.172 | [8] -0.133 | alisertib 0.01 | [9] -0.212 | gefitinib 0.172

EPS8L1 (UniProt Q8TE68)
inactive: vemurafenib -0.01 | barasertib 0.102 | [2] -0.073 | [3] 0.038 | [4] 0.068 | [5] -0.11 | saracatinib 0.017 | sotrastaurin -0.117 | alvocidib 0.009 | Tubastatin A -0.26 | defactinib -0.028 | [7] -0.041 | encorafenib 0.02 | [8] -0.055

EMC1 (UniProt Q8N766)
inactive: vemurafenib 0.012 | [1] -0.005 | barasertib 0.022 | [2] -0.048 | volasertib 0.005 | [3] -0.012 | [4] -0.108 | [5] 0.036 | saracatinib -0.005 | sotrastaurin 0.038 | alvocidib -0.024 | Tubastatin A 0.023 | [6] -0.003 | defactinib 0.042 | [7] -0.053 | encorafenib 0.026 | [8] -0.057 | alisertib -0.01 | [9] -0.004 | gefitinib 0.016

EMC7 (UniProt Q9NPA0)
inactive: vemurafenib 0.034 | [1] 0.004 | barasertib -0.006 | [2] 0.034 | volasertib 0 | [3] -0.023 | [5] 0.125 | saracatinib 0.005 | sotrastaurin 0.026 | alvocidib -0.146 | Tubastatin A 0.039 | [6] -0.037 | defactinib 0.02 | [7] -0.008 | encorafenib 0.026 | [8] -0.058 | alisertib 0.001 | [9] 0.017 | gefitinib -0.043
active: [4] -0.37

EIF2B1 (UniProt Q14232)
inactive: vemurafenib -0.002 | [1] 0.005 | barasertib -0.029 | [2] -0.007 | volasertib 0.013 | [3] 0.006 | [4] 0.027 | [5] -0.006 | saracatinib -0.013 | sotrastaurin -0.01 | alvocidib -0.002 | Tubastatin A -0.006 | [6] 0.007 | defactinib -0.013 | [7] -0.001 | encorafenib -0.003 | [8] -0.076 | alisertib -0.006 | [9] -0.01 | gefitinib -0.042

ELOB (UniProt Q15370)
inactive: vemurafenib -0.016 | [1] -0.018 | barasertib 0.145 | [2] 0.041 | volasertib 0.046 | [3] 0 | [4] -0.087 | [5] -0.013 | saracatinib -0.016 | sotrastaurin -0.045 | alvocidib 0.013 | Tubastatin A 0.013 | [6] -0.036 | defactinib 0.054 | [7] 0.028 | encorafenib -0.003 | [8] 0 | alisertib 0.022 | [9] 0 | gefitinib -0.091

ELOVL1 (UniProt Q9BW60)
inactive: vemurafenib 0.003 | [1] 0.026 | barasertib 0.046 | [2] 0.119 | volasertib -0.067 | [3] 0.081 | [4] 0.03 | [5] 0.005 | saracatinib -0.055 | sotrastaurin -0.011 | alvocidib 0.017 | Tubastatin A -0.052 | [6] -0.073 | defactinib 0.083 | [7] -0.079 | encorafenib -0.038 | [8] 0.001 | [9] 0.032

Two consecutive entries from above, for reference:
EPS8L1 (UniProt Q8TE68)
inactive: vemurafenib -0.01 | barasertib 0.102 | [2] -0.073 | [3] 0.038 | [4] 0.068 | [5] -0.11 | saracatinib 0.017 | sotrastaurin -0.117 | alvocidib 0.009 | Tubastatin A -0.26 | defactinib -0.028 | [7] -0.041 | encorafenib 0.02 | [8] -0.055

EMC1 (UniProt Q8N766)
inactive: vemurafenib 0.012 | [1] -0.005 | barasertib 0.022 | [2] -0.048 | volasertib 0.005 | [3] -0.012 | [4] -0.108 | [5] 0.036 | saracatinib -0.005 | sotrastaurin 0.038 | alvocidib -0.024 | Tubastatin A 0.023 | [6] -0.003 | defactinib 0.042 | [7] -0.053 | encorafenib 0.026 | [8] -0.057 | alisertib -0.01 | [9] -0.004 | gefitinib 0.016

(cont.)

ELK1 (UniProt P19419)
inactive: vemurafenib 0.128 | barasertib 0.227 | [2] -0.04 | [3] -0.006 | [4] -0.028 | [5] -0.081 | saracatinib 0.003 | alvocidib 0.009 | Tubastatin A 0.091 | defactinib -0.163 | [7] 0.047 | encorafenib 0.124 | [8] 0.035

ELAC1 (UniProt Q9H777)
inactive: vemurafenib -0.005 | [1] 0.043 | barasertib -0.101 | [2] -0.042 | volasertib 0 | [4] -0.003 | [5] 0.055 | alvocidib -0.087 | defactinib -0.058 | encorafenib 0.104 | [8] -0.037 | [9] 0.136

EPB41 (UniProt P11171)
inactive: vemurafenib -0.051 | [1] 0.005 | barasertib -0.009 | [2] -0.033 | volasertib -0.02 | [3] 0.022 | [4] 0.026 | [5] -0.135 | saracatinib 0.014 | sotrastaurin 0.026 | alvocidib 0.044 | Tubastatin A -0.02 | [6] 0.011 | defactinib 0.015 | [7] -0.067 | encorafenib 0.01 | [8] -0.001 | alisertib 0.02 | [9] -0.036 | gefitinib 0.007

EIF2B4 (UniProt Q9UI10)
inactive: vemurafenib -0.064 | [1] 0.026 | barasertib 0.006 | [2] 0.04 | volasertib -0.032 | [3] 0.048 | saracatinib 0.042 | sotrastaurin 0.047 | Tubastatin A 0.006 | [6] -0.004 | defactinib 0.03 | [7] -0.058 | encorafenib 0.114 | [8] -0.1 | alisertib -0.039 | [9] -0.008 | gefitinib 0.074

EIF3J isoform 2 (UniProt O75822)
inactive: vemurafenib 0.157 | [1] 0.017 | [2] -0.002 | volasertib 0.016 | [3] -0.045 | [4] 0.313 | [5] -0.204 | alvocidib 0.061 | Tubastatin A 0.095 | defactinib -0.061 | encorafenib 0.001 | [8] 0.101 | [9] -0.006

EIF2B3 (UniProt Q9NR50)
active: [4] 0.287
inactive: vemurafenib 0.013 | [1] 0.021 | barasertib -0.008 | [2] -0.028 | volasertib -0.02 | [3] 0.044 | [5] -0.111 | saracatinib 0.005 | sotrastaurin -0.003 | alvocidib 0.071 | Tubastatin A -0.103 | [6] -0.009 | defactinib 0.008 | [7] -0.012 | encorafenib -0.007 | [8] 0.057 | alisertib -0.016 | [9] -0.007 | gefitinib -0.041

ELAVL4 (UniProt P26378)
inactive: vemurafenib -0.045 | [1] 0.035 | [2] -0.119 | volasertib -0.038 | [3] 0.054 | [4] -0.006 | [5] 0.029 | saracatinib -0.052 | sotrastaurin 0 | alvocidib 0.019 | Tubastatin A -0.125 | [6] 0.036 | defactinib -0.007 | [7] -0.003 | encorafenib 0.003 | [8] 0.211 | alisertib 0.136 | [9] -0.031 | gefitinib 0.056

ELOVL6 (UniProt Q9H5J4)
inactive: vemurafenib -0.322 | [1] 0.032 | volasertib -0.165 | [4] -0.307 | [5] 0.105 | saracatinib 0.056 | sotrastaurin -0.003 | alvocidib -0.111 | [6] -0.44 | defactinib 0.243 | [7] -0.153 | alisertib -0.039 | [9] -0.153 | gefitinib -0.133

ELMO2 (UniProt Q96JJ3)
inactive: vemurafenib 0.092 | [1] 0.035 | volasertib 0.066 | [3] -0.007 | [4] -0.087 | [5] 0.091 | saracatinib 0.008 | sotrastaurin -0.025 | alvocidib -0.149 | Tubastatin A -0.106 | [6] -0.029 | defactinib -0.018 | [7] 0.059 | alisertib 0.043 | [9] -0.133 | gefitinib 0.035

EIF3A (UniProt Q14152)
inactive: vemurafenib 0.009 | [1] -0.001 | barasertib 0.037 | [2] -0.031 | volasertib -0.035 | [3] 0.012 | [4] -0.023 | [5] -0.06 | saracatinib -0.017 | sotrastaurin 0.033 | alvocidib 0.003 | Tubastatin A -0.018 | [6] 0.102 | defactinib 0.022 | [7] -0.017 | encorafenib 0.022 | [8] 0.168 | alisertib 0.001 | [9] -0.009 | gefitinib -0.031
